Assay [1] concerns the target T1, Nod-like receptor protein 1 (NLRP1) (rat (endogenous in spinal cord tissue and primary spinal cord neurons)) (UniProt D9I2F9).
T1 sequence: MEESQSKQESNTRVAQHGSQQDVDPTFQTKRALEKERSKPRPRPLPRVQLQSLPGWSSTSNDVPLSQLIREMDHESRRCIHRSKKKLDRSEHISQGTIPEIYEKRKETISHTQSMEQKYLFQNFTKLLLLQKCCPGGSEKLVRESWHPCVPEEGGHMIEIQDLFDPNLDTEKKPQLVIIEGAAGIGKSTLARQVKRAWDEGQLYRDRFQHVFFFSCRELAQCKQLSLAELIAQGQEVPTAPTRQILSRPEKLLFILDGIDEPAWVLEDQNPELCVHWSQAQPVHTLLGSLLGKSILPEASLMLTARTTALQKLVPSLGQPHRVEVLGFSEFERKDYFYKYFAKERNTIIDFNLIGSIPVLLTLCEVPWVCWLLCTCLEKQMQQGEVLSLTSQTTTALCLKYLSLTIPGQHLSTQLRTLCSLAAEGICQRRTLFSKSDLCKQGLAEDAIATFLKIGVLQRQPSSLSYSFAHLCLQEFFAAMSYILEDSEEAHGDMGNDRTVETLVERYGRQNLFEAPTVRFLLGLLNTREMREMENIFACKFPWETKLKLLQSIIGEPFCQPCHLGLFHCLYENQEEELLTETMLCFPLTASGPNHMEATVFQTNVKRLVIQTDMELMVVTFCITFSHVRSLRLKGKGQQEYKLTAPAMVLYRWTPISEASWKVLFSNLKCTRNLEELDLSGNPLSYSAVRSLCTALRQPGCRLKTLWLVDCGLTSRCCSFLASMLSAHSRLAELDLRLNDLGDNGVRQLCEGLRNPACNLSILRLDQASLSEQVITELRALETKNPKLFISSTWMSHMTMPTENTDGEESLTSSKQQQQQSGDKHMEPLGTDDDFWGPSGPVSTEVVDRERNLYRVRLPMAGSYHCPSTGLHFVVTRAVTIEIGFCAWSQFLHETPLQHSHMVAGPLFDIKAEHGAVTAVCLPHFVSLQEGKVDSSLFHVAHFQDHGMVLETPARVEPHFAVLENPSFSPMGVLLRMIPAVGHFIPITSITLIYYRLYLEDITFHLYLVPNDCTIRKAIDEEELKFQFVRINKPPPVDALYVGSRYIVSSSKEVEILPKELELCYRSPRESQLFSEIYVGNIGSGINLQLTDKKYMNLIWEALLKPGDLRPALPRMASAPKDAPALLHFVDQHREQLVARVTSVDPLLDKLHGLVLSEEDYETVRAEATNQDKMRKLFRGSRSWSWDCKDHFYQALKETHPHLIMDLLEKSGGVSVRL
As to the kind of experiment: co-IP; primary rat spinal cord neuron lysates (untreated, or 6 h 10 μM H2O2) in 50 mM Tris-HCl pH 7.4, 150 mM NaCl, 0.5 % NP-40; anti-NLRP1 antibody coupled to magnetic Dynabeads, overnight at 4 °C, low-pH elution, immunoblot. (In general: Immunoblotting shows a protein as a band on a membrane.)

In assay [2] the target is T1, Nod-like receptor protein 1 (NLRP1) (rat (endogenous in spinal cord tissue and primary spinal cord neurons)). The assay is described as follows: co-IP; rat spinal cord lysates (sham, or 24 h after SCI) in 50 mM Tris-HCl pH 7.4, 150 mM NaCl, 0.5 % NP-40; anti-ASC or anti-NLRP1 antibody coupled to magnetic Dynabeads, overnight at 4 °C, low-pH elution, immunoblot; pre-immune serum as negative control.

Assay [3] concerns the target apoptosis-associated speck-like protein containing a caspase recruitment domain (ASC) (rat (endogenous in spinal cord tissue and primary spinal cord neurons)). The description is as above.

Results are given in words; binding and its absence hold for the method and conditions named. Binding seen in cells or lysates may run through a third protein. A result given as binding can be weak or reduced; the word gives no strength.

Regarding “apoptosis-associated speck-like protein containing a caspase recruitment domain (ASC)”, the binding entry in assay [1] and in assay [2] was “binds” each time.

B1: pro-caspase-1 (enzyme, UniProt P43527 1-402)
chain: MADKVLRAKRKQFINSVSVGTINGLLDELLEKRVLNQEEMDTIKLANITVMEKARDLCDHVTKKGPRASQMFITYICNEDCYLAEILELQSGPSAETVFVTEDSKGGHPFSSETKEKLNKEGGAFPGPSGSLKFCPLEIAQKLWKENHSEIYPIMKTPTRTRLALIICNTDFQHLSRRVGADVDLREMKLLLQDLGYTVKVKENLTALEMTKELKEFAACPEHKTSDSTFLVFMSHGLQEGICGITYSNEVADILKVDTIFQMMNTLKCPSLKDKPKVIIIQACRGEKQGVVLLKDSVGNSEEGFLTDAIFEDDGIKKAHIEKDFIAFCSSTPDNVSWRHPVRGSLFIESLIKHMKEYAWSCDLEDIFRKVRFSFEQPDSRLQMPTTERVTLTKRFYLFPGH
Take B1: the binding entry in assay [3] is “binds”.

B2: Nod-like receptor protein 1 (NLRP1) (protein, UniProt D9I2F9 1-1218)
chain: MEESQSKQESNTRVAQHGSQQDVDPTFQTKRALEKERSKPRPRPLPRVQLQSLPGWSSTSNDVPLSQLIREMDHESRRCIHRSKKKLDRSEHISQGTIPEIYEKRKETISHTQSMEQKYLFQNFTKLLLLQKCCPGGSEKLVRESWHPCVPEEGGHMIEIQDLFDPNLDTEKKPQLVIIEGAAGIGKSTLARQVKRAWDEGQLYRDRFQHVFFFSCRELAQCKQLSLAELIAQGQEVPTAPTRQILSRPEKLLFILDGIDEPAWVLEDQNPELCVHWSQAQPVHTLLGSLLGKSILPEASLMLTARTTALQKLVPSLGQPHRVEVLGFSEFERKDYFYKYFAKERNTIIDFNLIGSIPVLLTLCEVPWVCWLLCTCLEKQMQQGEVLSLTSQTTTALCLKYLSLTIPGQHLSTQLRTLCSLAAEGICQRRTLFSKSDLCKQGLAEDAIATFLKIGVLQRQPSSLSYSFAHLCLQEFFAAMSYILEDSEEAHGDMGNDRTVETLVERYGRQNLFEAPTVRFLLGLLNTREMREMENIFACKFPWETKLKLLQSIIGEPFCQPCHLGLFHCLYENQEEELLTETMLCFPLTASGPNHMEATVFQTNVKRLVIQTDMELMVVTFCITFSHVRSLRLKGKGQQEYKLTAPAMVLYRWTPISEASWKVLFSNLKCTRNLEELDLSGNPLSYSAVRSLCTALRQPGCRLKTLWLVDCGLTSRCCSFLASMLSAHSRLAELDLRLNDLGDNGVRQLCEGLRNPACNLSILRLDQASLSEQVITELRALETKNPKLFISSTWMSHMTMPTENTDGEESLTSSKQQQQQSGDKHMEPLGTDDDFWGPSGPVSTEVVDRERNLYRVRLPMAGSYHCPSTGLHFVVTRAVTIEIGFCAWSQFLHETPLQHSHMVAGPLFDIKAEHGAVTAVCLPHFVSLQEGKVDSSLFHVAHFQDHGMVLETPARVEPHFAVLENPSFSPMGVLLRMIPAVGHFIPITSITLIYYRLYLEDITFHLYLVPNDCTIRKAIDEEELKFQFVRINKPPPVDALYVGSRYIVSSSKEVEILPKELELCYRSPRESQLFSEIYVGNIGSGINLQLTDKKYMNLIWEALLKPGDLRPALPRMASAPKDAPALLHFVDQHREQLVARVTSVDPLLDKLHGLVLSEEDYETVRAEATNQDKMRKLFRGSRSWSWDCKDHFYQALKETHPHLIMDLLEKSGGVSVRL
As for B2, the binding result in assay [3] was “binds”.

B3: caspase-1 p20 (domain or fragment, UniProt P43527 119-296)
chain: NKEGGAFPGPSGSLKFCPLEIAQKLWKENHSEIYPIMKTPTRTRLALIICNTDFQHLSRRVGADVDLREMKLLLQDLGYTVKVKENLTALEMTKELKEFAACPEHKTSDSTFLVFMSHGLQEGICGITYSNEVADILKVDTIFQMMNTLKCPSLKDKPKVIIIQACRGEKQGVVLLKD
B3: the binding entry in assay [3] is “binds”.

The values are drawn from paper PMC4772494.
